Construct, isoform or probe ends are uncertain for at least one entry. Tags and fusion partners may be left off the protein sequences shown.

The target of this series is T1, SACE_0303 (TetR-family regulator) (Saccharopolyspora erythraea) (UniProt A4F6H8).
T1 sequence (looked up, limits assumed): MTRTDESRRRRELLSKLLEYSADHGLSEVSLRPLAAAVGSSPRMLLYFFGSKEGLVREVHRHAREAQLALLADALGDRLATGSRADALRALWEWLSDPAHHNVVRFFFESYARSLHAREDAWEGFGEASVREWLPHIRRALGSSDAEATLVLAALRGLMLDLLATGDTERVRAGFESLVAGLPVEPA
The experiment in a line: EMSA. To be noted: EMSA: 10 mM Tris-HCl pH 7.5, 60 mM KCl, 10 mM DTT, 5 mM MgCl2, 10% glycerol, 150 ng probe, 20 uL, 30 C 20 min; footprint at 20 C; recombinant protein; protein details: His6 (pET28a, NdeI/HindIII); probe letters rebuilt from the primers and the genome. (In EMSA bound probe runs differently from free probe, usually more slowly.)

Take “CCACACCCCGCTGGCACCAACTCCTCGATCACCACGACCATGCACCAACCACCACTGTCATACACGCCGATCATTCTGAAACGAGCGGTGAAGCACACGAACCGAGAAGTGCTTGTCGAGGGCCCAAAGCTTCCGATGTGTGGACGCCGGCGCTCCCGATTCGGCCAGCCGCAGGCCCCCGCCCGGCATGACGTCGGTCCCTGGCCACTGGCGTGCGGCGCGGGCAGGATAGGAACACCACCTCAGCTCAGGGGACGTTGATGAGTCGATGCGCCCGCAGCTGCCACCATGTCCCGAACGCCGCTCTCCGTAGGTACCGGGCCGGCATCGCGCGCGACGAGGTGACCTG (double strand) [P2467]”: the binding result was “binds”. With “CCGGCGTCCACTGAGCAACGCGCGTCCGACGCCCGGCAAGCACCGCGACTGGATCAGCTCCGCAGCGCCAGTCGGAAACCCCGCGCCCTTCCCGGCCCAGGTGTCCCCCCCGCGGGGCCTACGCCTGAAGCGGCCGTTTCCACGTCGCGGTGTCCTACATCCACAGTCGGGACGACGGGGTTTAACACTTCTATTGATAAATCTAGCTCGCCGTATGAGTATGGTGCGCGACGTTAGCGAGGTCGGCGTCCCCCGACGACGGCTCCCCGGTTACCGGTGGCCACCTCTACCCCGGTTCCGGCGGCGGCCTGGTGGCGGGCGCGCGTGACTCGCATCAGCACCTCAACGTGGAGGTTTGGC (double strand) [P5222]” the entry was “binds”.

For the origin of these results see publication PMC8476842, “Uncovering and Engineering a Mini-Regulatory Network of the TetR-Family Regulator SACE_0303 for Yield Improvement of Erythromycin in Saccharopolyspora erythraea”.
